Assay results reported in publication PMC7862700.
Only a part is listed here, and it is no random draw. At the low end of the ranking, values are background and their order means little.

The chains behind the UniProt entries cited, without tags or fusion partners. Where a name states a change or a piece, a line headed by the entry shows the natural chain unless it says otherwise.
UniProt Q01892: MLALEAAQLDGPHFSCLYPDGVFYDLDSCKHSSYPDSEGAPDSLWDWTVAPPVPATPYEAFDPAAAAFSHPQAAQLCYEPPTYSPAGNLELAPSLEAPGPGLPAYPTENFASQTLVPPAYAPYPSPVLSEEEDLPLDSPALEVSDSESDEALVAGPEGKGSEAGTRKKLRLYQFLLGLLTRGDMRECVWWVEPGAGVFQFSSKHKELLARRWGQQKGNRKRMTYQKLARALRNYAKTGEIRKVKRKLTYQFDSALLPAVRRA

target: T1, EHF (UniProt Q9NZC4); assay: DAPPL (digital affinity profiling via proximity ligation, sequencing); conditions: 10 mM Tris-HCl pH 7.5, 50 mM NaCl, 1 mM DTT, 4% glycerol, room temperature, 30 min; GST-TFs on glutathione beads, 16-mer random dsDNA library, 0.1% …; high values mean tight binding; double strand, one strand shown; scale: fold enrichment (6-mer frequency, TF over GST control)
T1 sequence: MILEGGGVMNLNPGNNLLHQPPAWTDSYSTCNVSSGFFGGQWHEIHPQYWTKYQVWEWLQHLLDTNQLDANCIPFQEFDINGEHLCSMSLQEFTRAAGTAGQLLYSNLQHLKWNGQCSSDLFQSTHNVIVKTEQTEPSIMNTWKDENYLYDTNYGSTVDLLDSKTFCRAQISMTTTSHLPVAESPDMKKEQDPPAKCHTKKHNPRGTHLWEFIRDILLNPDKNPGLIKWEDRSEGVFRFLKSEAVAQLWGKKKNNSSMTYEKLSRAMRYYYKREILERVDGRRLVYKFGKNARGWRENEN

Sequence	binding signal
TGCGCT	1.25
CCGCCC	1.29
TCTGAT	1.25
CCTATT	1.64
ACTCCC	1.38
TTCAGT	1.04
GGCCTA	1.23
CCCGGA	2.95
ATAGTA	1.22
CTGGTT	1.18
ACAGAT	1.03
GCCTCA	1.17
CTGGCC	1.13
CTCTAA	1.41
AACACA	1.38
CTCTGC	1.57
ACAATC	1.13
TCTTAA	1.09
ACCGGA	3.2

Sequence	binding signal
AACCTT	1.33
CTCATG	1.23
TACCAC	1.23
TTGACA	1.29
CTACTT	1.92
TGCAAC	1.36
GTATAT	1.2
TAACAC	1.21
TACCCA	1.05
TTCAGC	1.25
CCTACT	1.69
GACCTC	1.31
TCTCAC	1.39
ACACGA	0.976
GGTCCT	0.974
CCGTCC	1.42
GCCTAT	1.17
AGTTCC	2.11
CACATT	1.23

target: SPIB (UniProt Q01892); assay: as above; conditions: 10 mM Tris-HCl pH 7.5, 50 mM NaCl, 1 mM DTT, 4% glycerol, room temperature, 30 min; GST-TFs on glutathione beads, 16-mer random dsDNA library, 0.1% …; high values mean tight binding; double strand, one strand shown; scale: fold enrichment (6-mer frequency, TF over GST control)

Sequence	binding signal
TCTGAT	1.31
ACTCCC	1.42
GGCCTA	1.04
ACAGAT	0.969
GCCTCA	1.25
AACACA	1.35
TTGACA	1.28
GGTCCT	0.971
CCGTCC	1.25
GCCTAT	1.21
CACATT	1.12
